Data as given in patent publication US11369607B2, “Compositions, systems, and methods for generating inner ear hair cells for treatment of hearing loss” (Massachusetts Institute of Technology, priority 2014, dated 2022).
For at least one compound, name, drawing or mass did not settle the structure. Some results were stated once for a whole list of compounds, not compound by compound.

Test system: Lgr5+ supporting cells isolated from the cochlea
Experiment: Expansion of Lgr5-GFP inner ear progenitor cells in Matrigel based 3D culture
Assay type: cell-based, mouse
Conditions: for Lgr5-GFP expression, effect of addition: neonatal Lgr5 inner ear progenitor cells
Protocol: Cell culture: Heterozygous Lgr5-EGFP-IRES-CreERT2 mice were obtained from Jackson Labs, and neonatal P2-P5 mice were used for cell isolation. Organ of Corti was isolated from Lgr5-GFP mice and further dissociated into single cells using trypsin. Cells were then cultured as previously described (Yin et al, 2014). Briefly, cells were entrapped in Matrigel and plated at the center of wells in a 24-well plate. Following polymerization of Matrigel, 500 μl of culture media (Advanced DMEM/F12 with N2 and B27) was added, containing growth factors including EGF (50 ng/ml) (epidermal growth factor), bFGF (20 ng/ml) (fibroblast growth factor), and IGF1 (50 ng/ml) (insulin-like growth factor 1), and small molecules including CHIR99021 (5 μM), valproic acid (1 mM), 2-phospho-L-ascorbic acid (280 μM), and 616452 (2 μM). Y-27632 (10 μM) was added for the first 2 days. In some experiments, bFGF was used at 50 ng/ml.
For single cell isolation, the organs of Corti were then treated with Cell Recovery Solution (Corning) for 1 h to separate cochlear epithelium from the underlying mesenchyme. Epithelia were then collected and treated with Trypsin (Life Technologies) for 15-20 minutes at 37° C. Single cells obtained by mechanical trituration were filtered by cell strainer (40 μm) and washed with cell culture media. For FACS sorting of Lgr5-high and Lgr5-Low cells, FACS ARIA (BD) was used and Lgr5-GFP was used as indicator of Lgr5 level. Sorted single cells were cultured in Matrigel in inner ear cell culture media with supplement growth factors and small molecules. Y-27632 was added in the first 2 days.
FACS analysis: Cell culture media was removed and Trypsin was added. After incubation at 37° C. for 10-20 min, colonies were dissociated into single cells. Live-cell number were counted using a hemocytometer and trypan blue staining. The cells were then stained with propidium iodide (PI) and analyzed with flow cytometry. The number of GFP-positive cells was calculated by multiplying the total number of cells by the percentage of GFP-positive cells.

| SMILES | Lgr5-GFP expression, effect of addition | additional increase of Lgr5+ cell expansion (added to growth factors with CHIR and VPA) |
| --- | --- | --- |
| O=c1cc(N2CCOCC2)oc2c(-c3ccccc3)cccc12 [LY294002] | does not promote the expression of Lgr5-GFP | – |
| CO[C@H]1C[C@@H]2CC[C@@H](C)[C@@](O)(O2)C(=O)C(=O)N2CCCC[C@H]2C(=O)O[C@H]([C@H](C)C[C@@H]2CC[C@@H](O)[C@H](OC)C2)CC(=O)[C@H](C)/C=C(\C)[C@@H](O)[C@@H](OC)C(=O)[C@H](C)C[C@H](C)/C=C/C=C/C=C/1C [Rapamycin] | does not promote the expression of Lgr5-GFP | – |
| O=C1O[C@H]([C@@H](O)CO)C(O)=C1OP(=O)(O)O [pVc, 2-phospho-L-ascorbic acid] | – | 2-3 fold |
